Assay results as given in PubChem BioAssay AID1671190 (National Center for Advancing Translational Sciences (NCATS), 2021).
Out of some 580,000 compounds screened, about 6,100 (1.1%) were called active. This list was built around the results that the source calls inconclusive (neither active nor inactive); the mix of calls is not that of the screen. The call rests on the fitted dose curve; in most records, active means well fitted inhibition curve with a large enough effect; inconclusive means small, poorly fitted or top-dose-only effect, or another doubt; inactive means no such curve, though single readings can be large or run the other way. A potency beside an inconclusive call is a rough fit, not a confirmed value.

Sequences of proteins named here, by UniProt entry; tags and fusion partners are left off. A change or cut given only in a name is not applied to a line headed by its entry.
UniProt P18054: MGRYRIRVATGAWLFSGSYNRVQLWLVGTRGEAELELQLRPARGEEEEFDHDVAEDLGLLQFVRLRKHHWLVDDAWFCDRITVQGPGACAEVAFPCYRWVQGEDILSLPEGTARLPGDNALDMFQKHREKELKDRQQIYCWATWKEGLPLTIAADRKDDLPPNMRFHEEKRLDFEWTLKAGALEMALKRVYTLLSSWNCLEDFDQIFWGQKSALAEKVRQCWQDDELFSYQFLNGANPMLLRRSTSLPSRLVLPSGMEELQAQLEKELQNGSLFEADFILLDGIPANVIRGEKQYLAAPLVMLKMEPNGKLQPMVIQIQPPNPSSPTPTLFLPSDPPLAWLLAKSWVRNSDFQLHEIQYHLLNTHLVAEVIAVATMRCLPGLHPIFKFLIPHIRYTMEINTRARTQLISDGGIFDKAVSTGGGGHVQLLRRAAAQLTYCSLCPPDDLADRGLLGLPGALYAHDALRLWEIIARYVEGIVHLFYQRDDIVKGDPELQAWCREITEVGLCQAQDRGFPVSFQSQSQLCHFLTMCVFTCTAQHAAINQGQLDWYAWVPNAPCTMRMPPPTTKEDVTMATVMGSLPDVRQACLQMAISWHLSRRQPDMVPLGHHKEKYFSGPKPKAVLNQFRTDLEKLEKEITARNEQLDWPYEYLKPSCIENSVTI

target: Polyunsaturated fatty acid lipoxygenase ALOX12 (Homo sapiens) (UniProt P18054); assay: Primary qHTS assay for inhibitors of human arachidonate 12S-lipoxygenase (ALOX12): Round 2; conditions: purified 12hLO, xylenol orange hydroperoxide absorbance; activity change, negative = inhibition: at 108 µM (top of the series) unless noted
Outline: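 Purified human 12hLO (150 nM final) in 25 mM Hepes, 0.01% Triton X-100, pH 7.0 was preincubated 15 min at room temperature with compound. Then 40 uM arachidonic acid was added, 30 min. Hydroperoxide was read by Fe-XO absorbance ratio 573/405 nm.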
On the % scale 0 is the no-effect control and ±100 the full control effect; potency means the concentration at half of the fitted maximal effect.

Structure (SMILES)	Potency	activity change, negative = inhibition
CCOC(=O)[C@H]1[C@H]2COc3ccc(OC)cc3[C@@H]2N2C(=O)[C@H](C)NC(=O)[C@@]12C	inconclusive: 31.6 µM [inhibitor, partial curve, poor fit]	–
Cc1cc(C)n(-c2cc(C(C)(C)C)nc3c(-c4ccccc4)cnn23)n1	–	inactive: -1.75%
Cc1ccc(Cl)cc1NC(=S)NCCCSC1CCCCC1	active: 35.5 µM	–
Cc1c(N=C2NC(=O)C(CC(=O)Nc3ccccc3)S2)c(=O)n(-c2ccccc2)n1C (stereo not given)	–	inactive: 0%
Cc1ccc(F)cc1NC(=O)CN1N=C(c2ccccc2)c2cc(Cl)ccc2S1(=O)=O	inconclusive: 17.8 µM [inhibitor, partial curve, poor fit]	–
CC(C)(C)C(=O)NC(=S)Nc1ccc(Cl)c(C(=O)O)c1	inconclusive: 50.1 µM [inhibitor, partial curve, poor fit]	–
Cc1nn(Cc2ccc(Cl)cc2)c(C)c1NC(=O)C1CC=CCC1C(=O)O (stereo not given)	–	inactive: -0.611%
O=C(CC1C(=O)N(CCc2ccccc2)c2nc3ccccc3n21)Nc1ccc(F)c(F)c1 (stereo not given)	inconclusive: 44.7 µM [inhibitor, partial curve, poor fit]	–
CCn1nc(C(=O)OCc2nc(-c3ccccc3)no2)c2ccccc2c1=O	–	inactive: -4.45%
Cc1csc(NC(=O)CSc2nc3[nH]ncc3c(=O)[nH]2)n1	–	inactive: -4.47%
COC(=O)/C=C1\NCCNC1=O	inconclusive: 28.2 µM [inhibitor, partial curve, poor fit]	–
Cc1ccc(-n2ncc3c(Nc4ccc(Oc5ccccc5)cc4)ncnc32)cc1	inconclusive: 50.1 µM [inhibitor, partial curve, poor fit]	–
CCc1nc2c(c(-c3ccc(Cl)cc3)n1)CCN(Cc1ccc(C(F)(F)F)cc1)CC2	inconclusive: 20 µM [inhibitor, full curve, poor fit]	–
O=C(CN1CCc2ccccc21)NC(=O)NCc1ccco1	inconclusive: 79.4 µM [inhibitor, single point]	–
COc1ccc(CNC(=O)COC(=O)c2c(NC(C)=O)sc(C)c2C)cc1OC	inconclusive: 50.1 µM [inhibitor, partial curve, poor fit]	–
CN1CCN(C(c2ccc(Cl)cc2)c2cc(Cl)c3cccnc3c2O)CC1 (stereo not given)	active: 10 µM	–
O=C1COc2ccc(-c3csc(Nc4cccc(Br)c4)n3)cc2N1	–	inactive: -7.86%
O=C(Nc1ccc(O)c2c(=O)cc(-c3cccc(Cl)c3)oc12)c1cccc(Cl)c1	inconclusive: 5.62 µM [inhibitor, full curve]	–
COc1ccc(Nc2nc(-c3cc4cc(Cl)ccc4oc3=O)cs2)c(OC)c1	inconclusive: 5.01 µM [inhibitor, full curve, poor fit]	–
Cn1nnc(NC(=O)CSc2ccc(Cl)cc2)n1	inconclusive: 17.8 µM [inhibitor, full curve, poor fit]	–
CCCCCCCCS(=O)(=O)CCCO	inconclusive: 3.16 µM [inhibitor, full curve, poor fit]	–
COC(=O)[C@@]1(C(C)C)N=C(c2cc(OC)c(OC)c(OC)c2)[C@]2(O1)C(=O)Nc1ccccc12	inconclusive: 50.1 µM [inhibitor, partial curve, poor fit]	–

Structure (SMILES)	Potency	activity change, negative = inhibition
CC(Sc1nc2cc(C(F)(F)F)ccc2n1Cc1ccccc1)C(=O)c1ccc(F)cc1 (stereo not given)	inconclusive: 35.5 µM [inhibitor, partial curve, poor fit]	–
Cn1nc(C(F)(F)F)cc1C(=O)Nc1ccc(Cl)cc1	inconclusive: 126 µM [inhibitor, single point]	–
Cc1cccc(C)c1N=C1NN=C(c2ccc3c(c2)CC(C)N3S(C)(=O)=O)CS1 (stereo not given)	–	inactive: 27.3%
NC(=O)N1CCc2ccccc21	inconclusive: 50.1 µM [inhibitor, partial curve]	–
Cc1cccc(C(=O)OCC(=O)NCc2ccco2)c1	–	inactive: -28.9%
O=C(O)C1OC(Oc2cc3oc(-c4ccccc4)cc(=O)c3c(O)c2O)C(O)C(O)C1O (stereo not given)	–	inactive: -0.671%
Cc1ccccc1-n1c(-c2csc3ccccc23)n[nH]c1=S	inconclusive: 44.7 µM [inhibitor, partial curve]	–
COc1cc2nc(=S)n3[nH]c(COc4ccccc4C)nc3c2cc1OC	inconclusive: 12.6 µM [inhibitor, partial curve, poor fit]	–
O=C(Nc1nnc(CCN2CCCCC2)s1)C1CCCCC1	inconclusive: 28.2 µM [inhibitor, single point]	–
CCCNC(=O)c1nnsc1S(=O)(=O)c1ccc(Cl)cc1	–	inactive: -9.1%
O=C(CCc1ncc(-c2ccccc2)o1)N1CCN(c2ccccc2F)CC1	inconclusive: 63.1 µM [inhibitor, partial curve, poor fit]	–
O=C(O)c1cc(O)c2c(c1)C(=O)c1cc(O)cc(O)c1C2=O	inconclusive: 44.7 µM [inhibitor, partial curve, poor fit]	–
CCOC(=O)C(NCCCO)c1ccccc1 (stereo not given)	inconclusive: 2.82 µM [inhibitor, full curve, poor fit]	–
CNC(=O)c1ccc(NC(=O)c2cccc[n+]2[O-])cc1	inconclusive: 10 µM [inhibitor, full curve, poor fit]	–
CCN1C(=O)C(Cc2nc3ccccc3c(=O)n2-c2cccc(C)c2)c2ccccc21 (stereo not given)	inconclusive: 56.2 µM [inhibitor, partial curve, poor fit]	–
O=C(Cc1c(C(=O)O)[nH]c2ccccc12)Nc1ccc2c(c1)OCO2	inconclusive: 56.2 µM [inhibitor, partial curve, poor fit]	–
O=C(NCc1ccc(OCC(F)(F)F)cc1)c1ccc(S(=O)(=O)N2CCCC2)cc1	inconclusive: 89.1 µM [inhibitor, partial curve, poor fit]	–
COc1ccc(CC2C(=O)Nc3ccc(Br)cc32)cc1 (stereo not given)	inconclusive: 89.1 µM [inhibitor, partial curve, poor fit]	–
c1ccc(-c2ccccc2Nc2cnc3ccc(-n4ccnc4)nn23)cc1	inconclusive: 56.2 µM [inhibitor, partial curve]	–
Cc1ccc(NC(=O)C(C)OC(=O)C2CC3CCCC(C2)C3=O)cc1S(=O)(=O)N1CCOCC1 (stereo not given)	inconclusive: 44.7 µM [inhibitor, partial curve, poor fit]	–
COc1ccccc1C(=O)NC(CCSC)C(=O)Nc1ccc(C)c(S(=O)(=O)N2CCOCC2)c1 (stereo not given)	–	inactive: 46.7%
CC(C)Oc1ccc(C(=O)NCCc2csc(-c3cccc(F)c3)n2)cc1	inconclusive: 126 µM [inhibitor, partial curve, poor fit]	–

Structure (SMILES)	Potency	activity change, negative = inhibition
CC12CCC(=O)N1C(C(=O)Nc1nc3ccc(F)cc3s1)CS2 (stereo not given)	inconclusive: 126 µM [inhibitor, single point]	–
COc1cc([C@H]2NC(=O)C[C@H]2C(=O)OCc2ccccc2)ccc1OC(C)C	inconclusive: 63.1 µM [inhibitor, partial curve, poor fit]	–
CCNc1ncc2nc(C)c(=O)n(C3CC3)c2n1	inconclusive: 31.6 µM [inhibitor, partial curve, poor fit]	–
O=C(NNC(=S)NC(=O)c1ccc(F)cc1)c1ccc(Cl)cc1	active: 17.8 µM	–
Cn1c(CN2CCCCC2)c(C#N)c2ccccc21	inconclusive: 35.5 µM [inhibitor, partial curve, poor fit]	–
O=C(N/N=C/c1cccs1)c1cc(-c2ccc(Cl)s2)[nH]n1	–	inactive: 5.24%
CCCC(=O)N1c2nc(-c3ccco3)nn2C2(CCCCC2)[C@@H]2CCCC[C@@H]21	inconclusive: 44.7 µM [inhibitor, partial curve, poor fit]	–
CN1/C(=C\C(=O)COC(=O)c2ccc([N+](=O)[O-])o2)C(C)(C)c2ccccc21	–	inactive: -0.445%
Cc1csc(NC(=O)c2ccc(Oc3ccc(F)cc3Br)nc2)n1	inconclusive: 100 µM [inhibitor, partial curve, poor fit]	–
O=C(c1cc(F)ccc1F)N1CCC(n2cc(-c3nc(-c4ccccc4)no3)nn2)C1 (stereo not given)	–	inactive: -10.3%
O=C(/C=C/c1ccc(F)cc1)c1cc2ccccc2oc1=O	inconclusive: 35.5 µM [inhibitor, partial curve, poor fit]	–
COC(=O)C1CN(Cc2ccc(OC)cc2)CCS(=O)(=O)N1Cc1cn(Cc2ccc(F)cc2)nn1 (stereo not given)	inconclusive: 79.4 µM [inhibitor, partial curve, poor fit]	–
CCC(=O)N1CCc2cc(Br)cc(S(=O)(=O)CCC(=O)NCC3CCCO3)c21 (stereo not given)	–	inactive: 0%
CCC(Sc1nc2ccccc2s1)C(=O)Nc1cc(C)on1 (stereo not given)	inconclusive: 141 µM [inhibitor, single point]	–
CCN(CC(=O)Nc1ccc(NC(C)=O)cc1)C(=O)CSc1ncnc2sc(C)c(C)c12	–	inactive: -18.4%
Cc1ccc(-c2noc(CN(C(=O)c3cccs3)C(C)C)n2)cc1	inconclusive: 11.2 µM [inhibitor, full curve]	–
COCCNC(=S)N/N=C/c1c(C)[nH]c2ccccc12	inconclusive: 35.5 µM [inhibitor, partial curve, poor fit]	–
CN(C)CCOC(=O)C12CC3CC(C1)CC(C(=O)OCCN(C)C)(C3)C2	inconclusive: 79.4 µM [inhibitor, partial curve, poor fit]	–
CCN1c2cc(C(=O)NC3CCCCCC3)ccc2C(=O)N2CCCCCC21 (stereo not given)	–	inactive: -7.14%
C[C@H](CO)N1C[C@H](C)[C@@H](CN(C)C(=O)C2CC2)OCc2cnnn2CCCC1=O	inconclusive: 28.2 µM [inhibitor, single point]	–
O=c1oc2ccc(Cl)cc2cc1-c1csc(Nc2cccc(F)c2)n1	inconclusive: 44.7 µM [inhibitor, single point]	–

Entries from the list above that have a CF3 group, in the order listed:
Structure (SMILES)	Potency	activity change, negative = inhibition
CCc1nc2c(c(-c3ccc(Cl)cc3)n1)CCN(Cc1ccc(C(F)(F)F)cc1)CC2	inconclusive: 20 µM [inhibitor, full curve, poor fit]	–
CC(Sc1nc2cc(C(F)(F)F)ccc2n1Cc1ccccc1)C(=O)c1ccc(F)cc1 (stereo not given)	inconclusive: 35.5 µM [inhibitor, partial curve, poor fit]	–
Cn1nc(C(F)(F)F)cc1C(=O)Nc1ccc(Cl)cc1	inconclusive: 126 µM [inhibitor, single point]	–
O=C(NCc1ccc(OCC(F)(F)F)cc1)c1ccc(S(=O)(=O)N2CCCC2)cc1	inconclusive: 89.1 µM [inhibitor, partial curve, poor fit]	–
